Patent publication US20070110760A1
These are yes or no findings as the source states them, for the method shown. A result given as binding can be weak or reduced; the word gives no strength. Sequences can lack the tags named with a protein.

Molecular target: Syk-GFP fusion protein
Assay: co-localization in transiently transfected 293T cells, confocal microscopy

Binder: KRPPYVLL [dsRed.KRPPYVLL fusion protein]
- binding: binds
